In paper doi:10.1101/583740 (bioRxiv, 2019):
Results are given in words; binding and its absence hold for the method and conditions named. Binding seen in cells or lysates may run through a third protein. Binding can be weak; no strength is given. Tags and fused reporters may be left off the sequences shown.

Target: T1, HA-SIRT1 (sirtuin type 1) (UniProt Q923E4)
T1 sequence: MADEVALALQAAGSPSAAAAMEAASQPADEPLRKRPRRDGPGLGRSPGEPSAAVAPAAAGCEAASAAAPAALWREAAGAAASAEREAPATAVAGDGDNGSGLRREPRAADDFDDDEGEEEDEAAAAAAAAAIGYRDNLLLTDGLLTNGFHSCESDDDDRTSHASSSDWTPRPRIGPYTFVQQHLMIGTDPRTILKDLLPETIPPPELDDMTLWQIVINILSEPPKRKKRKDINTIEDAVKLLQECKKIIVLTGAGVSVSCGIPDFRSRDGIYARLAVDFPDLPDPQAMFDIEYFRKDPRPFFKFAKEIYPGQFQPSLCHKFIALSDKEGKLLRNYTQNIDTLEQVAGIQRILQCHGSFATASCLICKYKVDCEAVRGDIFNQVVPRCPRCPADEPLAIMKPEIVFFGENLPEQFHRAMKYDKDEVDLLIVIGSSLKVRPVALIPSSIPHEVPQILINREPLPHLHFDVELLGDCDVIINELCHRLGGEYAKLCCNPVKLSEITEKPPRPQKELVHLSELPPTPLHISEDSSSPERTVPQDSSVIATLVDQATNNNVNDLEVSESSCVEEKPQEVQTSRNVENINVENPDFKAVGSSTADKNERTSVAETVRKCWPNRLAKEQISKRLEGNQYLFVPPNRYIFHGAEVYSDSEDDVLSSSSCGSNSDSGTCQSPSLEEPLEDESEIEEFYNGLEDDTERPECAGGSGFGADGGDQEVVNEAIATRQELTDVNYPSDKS
Assay: co-IP

## TRPC3-C (659-836aa) (from UniProt Q9QZC1) (domain or fragment)
  binding: binds
